The target in assay [1] is T1, FOXM1 (human (endogenous in U2OS, HeLa, MCF-7)) (UniProt Q08050).
T1 sequence: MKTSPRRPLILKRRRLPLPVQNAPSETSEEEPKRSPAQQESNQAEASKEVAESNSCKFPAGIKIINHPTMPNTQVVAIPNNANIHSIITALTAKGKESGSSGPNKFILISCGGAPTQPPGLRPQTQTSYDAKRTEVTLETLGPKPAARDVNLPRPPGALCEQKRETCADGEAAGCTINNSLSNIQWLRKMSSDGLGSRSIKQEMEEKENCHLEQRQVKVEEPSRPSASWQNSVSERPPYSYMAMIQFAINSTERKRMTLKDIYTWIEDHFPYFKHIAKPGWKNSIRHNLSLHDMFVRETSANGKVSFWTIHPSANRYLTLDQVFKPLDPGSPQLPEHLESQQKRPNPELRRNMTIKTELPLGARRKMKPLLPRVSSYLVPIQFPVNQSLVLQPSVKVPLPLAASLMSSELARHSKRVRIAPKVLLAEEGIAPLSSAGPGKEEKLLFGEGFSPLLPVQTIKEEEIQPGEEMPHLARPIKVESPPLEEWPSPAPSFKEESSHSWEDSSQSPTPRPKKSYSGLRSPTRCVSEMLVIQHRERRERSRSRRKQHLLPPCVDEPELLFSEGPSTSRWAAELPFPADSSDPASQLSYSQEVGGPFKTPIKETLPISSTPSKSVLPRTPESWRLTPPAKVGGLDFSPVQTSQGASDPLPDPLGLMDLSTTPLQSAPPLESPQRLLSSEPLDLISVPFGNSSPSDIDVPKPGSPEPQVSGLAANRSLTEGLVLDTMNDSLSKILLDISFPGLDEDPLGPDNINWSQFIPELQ
Nature of the assay: co-IP; anti-FOXM1 or IgG immunoprecipitation from cytoplasmic or nuclear fractions of HeLa and MCF-7 cells, immunoblotting. In general terms: A western blot detects proteins with antibodies after separation by electrophoresis.

By UniProt entry, the sequences of proteins in these tests, tags left out. Where a name states a change or a piece, a line headed by the entry shows the natural chain unless it says otherwise. Chains listed by the source or under a name are the forms on record and can include a tag or linker.
UniProt P00519: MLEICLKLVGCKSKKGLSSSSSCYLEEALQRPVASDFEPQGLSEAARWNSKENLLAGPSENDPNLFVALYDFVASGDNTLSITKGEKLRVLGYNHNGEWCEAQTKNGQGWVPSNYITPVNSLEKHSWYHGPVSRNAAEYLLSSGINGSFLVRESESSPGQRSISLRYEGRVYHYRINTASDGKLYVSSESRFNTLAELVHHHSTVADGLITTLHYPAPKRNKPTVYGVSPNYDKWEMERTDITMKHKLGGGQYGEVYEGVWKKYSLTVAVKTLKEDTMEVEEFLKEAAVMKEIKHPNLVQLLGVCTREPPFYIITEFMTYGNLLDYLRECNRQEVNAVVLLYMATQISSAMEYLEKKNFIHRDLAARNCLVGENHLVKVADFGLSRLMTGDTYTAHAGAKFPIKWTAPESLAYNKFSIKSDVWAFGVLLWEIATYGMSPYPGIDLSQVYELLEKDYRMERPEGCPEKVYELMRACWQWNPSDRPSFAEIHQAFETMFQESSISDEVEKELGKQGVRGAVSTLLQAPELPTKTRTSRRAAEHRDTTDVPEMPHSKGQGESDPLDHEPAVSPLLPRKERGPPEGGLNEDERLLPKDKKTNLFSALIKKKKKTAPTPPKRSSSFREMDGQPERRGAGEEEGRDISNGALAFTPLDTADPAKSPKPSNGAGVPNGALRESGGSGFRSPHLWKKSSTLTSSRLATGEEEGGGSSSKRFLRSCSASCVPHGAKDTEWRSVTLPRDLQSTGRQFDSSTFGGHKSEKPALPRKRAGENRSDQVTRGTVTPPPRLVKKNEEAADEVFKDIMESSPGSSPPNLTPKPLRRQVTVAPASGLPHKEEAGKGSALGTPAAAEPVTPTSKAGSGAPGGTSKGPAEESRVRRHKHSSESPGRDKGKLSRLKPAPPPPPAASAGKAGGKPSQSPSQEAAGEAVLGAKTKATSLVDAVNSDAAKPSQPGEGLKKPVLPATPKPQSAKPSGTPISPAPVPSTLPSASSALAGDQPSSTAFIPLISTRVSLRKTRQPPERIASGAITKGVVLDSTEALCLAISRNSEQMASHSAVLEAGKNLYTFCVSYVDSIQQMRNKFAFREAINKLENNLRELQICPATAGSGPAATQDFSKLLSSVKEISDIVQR
Myc-ABL1 (P00519-2, form named): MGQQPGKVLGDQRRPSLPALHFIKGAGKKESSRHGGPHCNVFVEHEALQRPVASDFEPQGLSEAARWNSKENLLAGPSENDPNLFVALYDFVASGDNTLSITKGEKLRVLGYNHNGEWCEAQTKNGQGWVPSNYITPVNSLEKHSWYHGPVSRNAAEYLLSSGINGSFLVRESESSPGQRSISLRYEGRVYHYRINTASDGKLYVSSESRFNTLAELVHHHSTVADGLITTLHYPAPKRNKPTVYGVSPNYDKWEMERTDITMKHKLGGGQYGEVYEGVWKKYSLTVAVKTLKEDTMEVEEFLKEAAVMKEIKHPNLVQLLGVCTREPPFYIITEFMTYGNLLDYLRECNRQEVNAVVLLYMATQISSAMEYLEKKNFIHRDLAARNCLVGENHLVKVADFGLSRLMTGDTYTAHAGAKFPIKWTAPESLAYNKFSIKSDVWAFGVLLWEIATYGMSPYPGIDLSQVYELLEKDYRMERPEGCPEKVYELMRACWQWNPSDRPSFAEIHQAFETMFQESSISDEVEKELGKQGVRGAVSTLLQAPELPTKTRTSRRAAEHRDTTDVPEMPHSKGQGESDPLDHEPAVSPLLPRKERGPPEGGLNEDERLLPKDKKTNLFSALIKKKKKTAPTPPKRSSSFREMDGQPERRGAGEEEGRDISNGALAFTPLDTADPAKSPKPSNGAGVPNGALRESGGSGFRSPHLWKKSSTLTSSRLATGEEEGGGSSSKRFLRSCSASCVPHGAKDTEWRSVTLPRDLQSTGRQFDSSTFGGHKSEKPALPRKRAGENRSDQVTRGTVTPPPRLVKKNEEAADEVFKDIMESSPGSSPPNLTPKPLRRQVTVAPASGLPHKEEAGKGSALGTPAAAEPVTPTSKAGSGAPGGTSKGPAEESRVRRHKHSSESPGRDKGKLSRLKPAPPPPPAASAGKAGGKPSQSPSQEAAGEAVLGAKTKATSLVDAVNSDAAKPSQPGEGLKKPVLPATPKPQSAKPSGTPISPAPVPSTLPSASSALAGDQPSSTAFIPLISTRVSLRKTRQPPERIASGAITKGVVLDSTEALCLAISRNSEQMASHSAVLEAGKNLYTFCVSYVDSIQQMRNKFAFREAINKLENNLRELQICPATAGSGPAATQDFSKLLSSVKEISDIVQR
UniProt Q9UM11: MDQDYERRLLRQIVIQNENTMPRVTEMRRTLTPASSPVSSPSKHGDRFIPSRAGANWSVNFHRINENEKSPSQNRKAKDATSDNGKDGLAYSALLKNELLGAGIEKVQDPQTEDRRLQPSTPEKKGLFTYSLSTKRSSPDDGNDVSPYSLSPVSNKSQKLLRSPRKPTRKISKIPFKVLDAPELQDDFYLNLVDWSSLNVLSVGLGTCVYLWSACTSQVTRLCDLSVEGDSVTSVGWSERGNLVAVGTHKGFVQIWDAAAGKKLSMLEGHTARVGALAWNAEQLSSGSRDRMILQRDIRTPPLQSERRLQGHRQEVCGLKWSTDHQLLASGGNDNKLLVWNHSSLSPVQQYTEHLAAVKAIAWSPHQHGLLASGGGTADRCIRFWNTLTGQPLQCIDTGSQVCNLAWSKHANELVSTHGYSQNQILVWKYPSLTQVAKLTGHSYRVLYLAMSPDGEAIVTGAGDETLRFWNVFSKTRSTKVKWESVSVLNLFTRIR

Assay [2] addresses T1, FOXM1 (human (endogenous in U2OS, HeLa, MCF-7)). The assay is described as follows: co-IP; anti-FOXM1 or control IgG immunoprecipitation from total cell lysates (U2OS, HeLa, MCF-7, Cr-Y575F lines), immunoblotting; lysis buffer 150 mM NaCl, 0.5 mM EDTA, 50 mM Tris-HCl pH 8.0, 1% Nonidet P-40; 2 h at 4 °C; some cells treated with imatinib and MG132.
For assay [3] the target is unchanged. Nature of the assay: proximity ligation; in situ PLA (Duo-Link) in U2OS cells with anti-ABL1 and anti-FOXM1 antibodies; one antibody alone as control.
Assay [4] addresses T2, Flag-FOXM1 (human) (UniProt Q08050).
T2 sequence: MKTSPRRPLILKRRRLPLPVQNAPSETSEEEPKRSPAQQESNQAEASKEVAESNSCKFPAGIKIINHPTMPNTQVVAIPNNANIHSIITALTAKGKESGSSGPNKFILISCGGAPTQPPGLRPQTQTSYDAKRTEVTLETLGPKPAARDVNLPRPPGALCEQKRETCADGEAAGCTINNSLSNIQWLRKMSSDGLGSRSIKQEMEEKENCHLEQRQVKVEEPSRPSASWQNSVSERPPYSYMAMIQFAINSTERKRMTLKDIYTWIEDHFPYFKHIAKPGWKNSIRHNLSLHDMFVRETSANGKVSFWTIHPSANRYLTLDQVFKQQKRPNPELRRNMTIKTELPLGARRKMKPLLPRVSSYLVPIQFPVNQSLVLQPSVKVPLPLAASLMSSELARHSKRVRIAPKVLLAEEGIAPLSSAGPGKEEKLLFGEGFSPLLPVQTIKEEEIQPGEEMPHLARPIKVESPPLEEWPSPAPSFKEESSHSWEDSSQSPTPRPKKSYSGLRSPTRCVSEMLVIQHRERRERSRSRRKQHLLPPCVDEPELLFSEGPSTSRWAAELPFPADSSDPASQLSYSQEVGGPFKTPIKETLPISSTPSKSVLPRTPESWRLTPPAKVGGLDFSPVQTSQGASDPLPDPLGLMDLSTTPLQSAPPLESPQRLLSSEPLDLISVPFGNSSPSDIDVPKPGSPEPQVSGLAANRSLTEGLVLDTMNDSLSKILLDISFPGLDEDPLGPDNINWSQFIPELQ
Nature of the assay: co-IP; 293FT cells transfected with the indicated plasmids, immunoprecipitation (anti-FLAG, anti-Myc) and immunoblotting; lysis buffer 150 mM NaCl, 0.5 mM EDTA, 50 mM Tris-HCl pH 8.0, 1% Nonidet P-40; 2 h at 4 °C; with or without imatinib.

The target in assay [5] is T3, Flag-FOXM1(Y575F) (human) (UniProt Q08050).
T3 sequence: T2 sequence with Y575F
The description is as above.

Assay [6] deals with T4, endogenous FOXM1(Y575F) (human (endogenous in HeLa, MCF-7)) (UniProt Q08050).
T4 sequence: T2 sequence with Y575F
Nature of the assay: co-IP; anti-FOXM1 or control IgG immunoprecipitation from total cell lysates (U2OS, HeLa, MCF-7, Cr-Y575F lines), immunoblotting; lysis buffer 150 mM NaCl, 0.5 mM EDTA, 50 mM Tris-HCl pH 8.0, 1% Nonidet P-40; 2 h at 4 °C; some cells treated with imatinib and MG132.

The target of assay [7] is T2, Flag-FOXM1 (human). The assay is described as follows: far-Western, overlay or dot blot; anti-Flag immunoprecipitate of 293FT cells (Flag-FOXM1 with Myc-ABL1), with or without PTPase at 37 °C for 2 h, resolved by SDS-PAGE and blotted; membrane incubated with purified soluble GST-ABL1 SH2, GST-ABL1 SH3 or GST at 4 °C overnight, detected with …; both purified.
Assay [8] has as its target T5, FOXM1 N-terminal repressor domain (NRD, aa 1-234) (human) (UniProt Q08050).
T5 sequence: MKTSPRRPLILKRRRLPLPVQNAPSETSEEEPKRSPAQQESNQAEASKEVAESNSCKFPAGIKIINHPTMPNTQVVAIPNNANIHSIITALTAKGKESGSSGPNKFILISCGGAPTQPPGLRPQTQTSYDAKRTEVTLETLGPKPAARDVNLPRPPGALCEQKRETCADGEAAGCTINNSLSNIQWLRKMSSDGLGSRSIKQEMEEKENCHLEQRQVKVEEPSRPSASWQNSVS
The assay is described as follows: co-IP; 293FT cells transfected with the indicated plasmids, immunoprecipitation (anti-FLAG, anti-Myc) and immunoblotting; lysis buffer 150 mM NaCl, 0.5 mM EDTA, 50 mM Tris-HCl pH 8.0, 1% Nonidet P-40; 2 h at 4 °C; with or without imatinib.

A further assay deals with T6, FOXM1 aa 322-600 (human) (UniProt Q08050).
T6 sequence: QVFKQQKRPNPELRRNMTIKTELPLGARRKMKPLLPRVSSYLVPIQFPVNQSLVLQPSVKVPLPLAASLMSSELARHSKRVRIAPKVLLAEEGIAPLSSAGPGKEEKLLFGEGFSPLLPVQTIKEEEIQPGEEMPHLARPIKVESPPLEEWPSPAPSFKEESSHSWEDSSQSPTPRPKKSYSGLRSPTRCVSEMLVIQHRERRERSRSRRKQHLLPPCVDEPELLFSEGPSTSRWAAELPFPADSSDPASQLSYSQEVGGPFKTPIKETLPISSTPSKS
The description is as above.

For a further assay, the target named is GST-ABL1 SH3 (human) (UniProt P00519). Nature of the assay: pull-down; GST fusion or GST bound to glutathione-Sepharose resin, incubated with 293FT lysate holding Flag-tagged FOXM1 for 2 h at 4 °C, washed 3 times with lysis buffer, immunoblotting; only the target purified.
The target in a further assay is GST-ABL1 SH2 (human) (UniProt P00519). The description is as above.

Where a chain is given by its changes, count along the chain named. These are yes or no findings as the source states them, for the method shown. For some assays here: Binding seen in cells or lysates may run through a third protein. Some entries that bind do so weakly or less than the wild type. For some assays here: Where a sequence is shown, tags or fusion partners need not be part of it.

With ABL1 (from UniProt P00519 1-1130), the binding entry in assay [1], in [2] and in assay [3] was “binds” throughout.

For the molecule “CDH1 in 293FT cells (from UniProt Q9UM11 1-496)”, the binding result (in the assay with Flag-FOXM1 (human) [4]; in [5]) was “binds” each time.

With “CDH1, a coactivator of the E3 ubiquitin ligase anaphase-promoting complex/cyclosome (APC/C) (from UniProt Q9UM11 1-496)”, the binding entry in [6] and in assay [2] was “binds” each time.

Regarding “GST-ABL1 SH2 (from UniProt P00519 127-217) (domain or fragment)”, the binding result in the assay with Flag-FOXM1 (human) [7] was “binds”.

As to “GST-ABL1 SH3 (from UniProt P00519 61-121) (domain or fragment)”, the binding entry with Flag-FOXM1 (human) [7] is given as “binds”.

Consider Myc-ABL1 (from UniProt P00519-2 1-1149), for which the binding entry (in [8]; with Flag-FOXM1 (human) [4]; in the assay with FOXM1 aa 322-600 (human)) was “binds” throughout.

B1: Flag-FOXM1 (protein, UniProt Q08050-2 1-748)
chain: T2 sequence
Take B1: the binding result with GST-ABL1 SH3 (human) and in the assay with GST-ABL1 SH2 (human) was “binds” each time.

Source of the values: publication PMC11445503.
